# Some of the results follow.
# What was measured:
# Test in all cases: glycan array binding signal (z-score within array); higher = stronger binding
# Conditions in all cases: glycan notation: IUPAC condensed, linker removed
# Fuc(a1-2)Gal = target: Fuc(a1-2)Gal
# Method in brief: (§1)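 The binding signal is a Z-score computed within each array. Data were drawn from 3228 arrays in the Consortium for Functional Glycomics database, restricted to those with a known protein sequence. Scores were averaged over arrays of the same protein sequence at different concentrations or buffers, and over linkers, and negative values can be taken as non-binding.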
# Fuc(a1-2)Gal(b1-3)GalNAc = target: Fuc(a1-2)Gal(b1-3)GalNAc
# Method in brief: as §1
# [1] = target: Fuc(a1-2)Gal(b1-3)GalNAc(a1-3)[Fuc(a1-2)]Gal(b1-4)Glc
# Method in brief: as §1
# [2] = target: Fuc(a1-2)Gal(b1-3)GalNAc(a1-3)[Fuc(a1-2)]Gal(b1-4)GlcNAc
# Method in brief: as §1
# [3] = target: Fuc(a1-2)Gal(b1-3)GalNAc(b1-3)Gal
# Method in brief: as §1
# [4] = target: Fuc(a1-2)Gal(b1-3)GalNAc(b1-3)Gal(a1-4)Gal(b1-4)Glc
# Method in brief: as §1
# [5] = target: Fuc(a1-2)Gal(b1-3)GalNAc(b1-4)[Neu5Ac(a2-3)]Gal(b1-4)Glc
# Method in brief: as §1
# Fuc(a1-2)Gal(b1-3)GlcNAc = target: Fuc(a1-2)Gal(b1-3)GlcNAc
# Method in brief: as §1
# [6] = target: Fuc(a1-2)Gal(b1-3)GlcNAc(b1-2)Man(a1-3)[Fuc(a1-2)Gal(b1-3)GlcNAc(b1-2)Man(a1-6)]Man(b1-4)GlcNAc(b1-4)GlcNAc
# Method in brief: as §1
# [7] = target: Fuc(a1-2)Gal(b1-3)GlcNAc(b1-3)Gal(b1-4)Glc
# Method in brief: as §1
# [8] = target: Fuc(a1-2)Gal(b1-3)GlcNAc(b1-3)[Fuc(a1-3)[Gal(b1-4)]GlcNAc(b1-6)]Gal(b1-4)Glc
# Method in brief: as §1
# [9] = target: Fuc(a1-2)Gal(b1-3)[Fuc(a1-4)]GlcNAc
# Method in brief: as §1
# [10] = target: Fuc(a1-2)Gal(b1-3)[Fuc(a1-4)]GlcNAc(b1-2)Man(a1-3)[Fuc(a1-2)Gal(b1-3)[Fuc(a1-4)]GlcNAc(b1-2)Man(a1-6)]Man(b1-4)GlcNAc(b1-4)GlcNAc
# Method in brief: as §1
# [11] = target: Fuc(a1-2)Gal(b1-3)[Fuc(a1-4)]GlcNAc(b1-3)[Fuc(a1-3)[Gal(b1-4)]GlcNAc(b1-6)]Gal(b1-4)Glc
# Method in brief: as §1
# [12] = target: Fuc(a1-2)Gal(b1-3)[Fuc(a1-4)]GlcNAc(b1-3)[Gal(b1-4)GlcNAc(b1-6)]Gal(b1-4)Glc
# Method in brief: as §1
# Fuc(a1-2)Gal(b1-4)Glc = target: Fuc(a1-2)Gal(b1-4)Glc
# Method in brief: as §1
# Fuc(a1-2)Gal(b1-4)Glc6S = target: Fuc(a1-2)Gal(b1-4)Glc6S
# Method in brief: as §1
# Fuc(a1-2)Gal(b1-4)GlcNAc = target: Fuc(a1-2)Gal(b1-4)GlcNAc
# Method in brief: as §1
# [13] = target: Fuc(a1-2)Gal(b1-4)GlcNAc(b1-2)Man(a1-3)[Fuc(a1-2)Gal(b1-4)GlcNAc(b1-2)Man(a1-6)]Man(b1-4)GlcNAc(b1-4)GlcNAc
# Method in brief: as §1
# [14] = target: Fuc(a1-2)Gal(b1-4)GlcNAc(b1-3)Gal(b1-4)GlcNAc
# Method in brief: as §1
# [15] = target: Fuc(a1-2)Gal(b1-4)GlcNAc(b1-3)Gal(b1-4)GlcNAc(b1-3)Gal(b1-4)GlcNAc
# Method in brief: as §1
# [16] = target: Fuc(a1-2)Gal(b1-4)GlcNAc(b1-3)GalNAc
# Method in brief: as §1
# [17] = target: Fuc(a1-2)Gal(b1-4)GlcNAc6S
# Method in brief: as §1
# [18] = target: Fuc(a1-2)Gal(b1-4)[Fuc(a1-3)]GlcNAc
# Method in brief: as §1
# [19] = target: Fuc(a1-2)Gal(b1-4)[Fuc(a1-3)]GlcNAc(b1-2)Man(a1-3)[Fuc(a1-2)Gal(b1-4)[Fuc(a1-3)]GlcNAc(b1-2)Man(a1-6)]Man(b1-4)GlcNAc(b1-4)GlcNAc
# Method in brief: as §1
# [20] = target: Fuc(a1-2)Gal(b1-4)[Fuc(a1-3)]GlcNAc(b1-3)Gal(b1-4)[Fuc(a1-3)]GlcNAc
# Method in brief: as §1
# [21] = target: Fuc(a1-2)Gal(b1-4)[Fuc(a1-3)]GlcNAc(b1-3)Gal(b1-4)[Fuc(a1-3)]GlcNAc(b1-3)Gal(b1-4)[Fuc(a1-3)]GlcNAc
# Method in brief: as §1
# Fuc(a1-2)Gal6S(b1-4)Glc = target: Fuc(a1-2)Gal6S(b1-4)Glc
# Method in brief: as §1
# [22] = target: Fuc(a1-2)Gal6S(b1-4)Glc6S
# Method in brief: as §1
# [23] = target: Fuc(a1-2)Gal6S(b1-4)GlcNAc
# Method in brief: as §1
binder,measurement,setting,value
"PEB4 (Campylobacter jejuni), A1VYV6 (protein) MKKFSLVAAALIAGVALNVNAATVATVNGKSISDAEVSEFFAPMLRGQDFKTLPDNQKKALIQQYIMQDLILQDAKKQNLEKDPLYTKELDRAKDAILVNVYQEKILNTIKIDAAKVKAFYDQNKDKYVKPARVQAKHILVATEKEAKDIINELKGLKGKELDAKFSELAKEKSIDPGSKNQGGELGWFDQSTMVKPFTDAAFALKNGTITTTPVKTNFGYHVILKENSQAKGQIKFDEVKQGIENGLKFEEFKKVINQKGQDLLNSAKVEYK",glycan array binding signal (z-score),Fuc(a1-2)Gal,0.031
same,glycan array binding signal (z-score),Fuc(a1-2)Gal(b1-3)GalNAc,0.001
same,glycan array binding signal (z-score),[1],-0.592
same,glycan array binding signal (z-score),[2],-0.144
same,glycan array binding signal (z-score),[3],0.194
same,glycan array binding signal (z-score),[4],-0.344
same,glycan array binding signal (z-score),[5],-0.3
same,glycan array binding signal (z-score),Fuc(a1-2)Gal(b1-3)GlcNAc,1.41
same,glycan array binding signal (z-score),[6],1.11
same,glycan array binding signal (z-score),[7],0.097
same,glycan array binding signal (z-score),[8],0.217
same,glycan array binding signal (z-score),[9],1.38
same,glycan array binding signal (z-score),[10],-0.341
same,glycan array binding signal (z-score),[11],0.3
same,glycan array binding signal (z-score),[12],1.36
same,glycan array binding signal (z-score),Fuc(a1-2)Gal(b1-4)Glc,-0.887
same,glycan array binding signal (z-score),Fuc(a1-2)Gal(b1-4)Glc6S,0.589
same,glycan array binding signal (z-score),Fuc(a1-2)Gal(b1-4)GlcNAc,0.024
same,glycan array binding signal (z-score),[13],-0.644
same,glycan array binding signal (z-score),[14],0.019
same,glycan array binding signal (z-score),[15],0.448
same,glycan array binding signal (z-score),[16],-0.795
same,glycan array binding signal (z-score),[17],0.788
same,glycan array binding signal (z-score),[18],0.26
same,glycan array binding signal (z-score),[19],1.14
same,glycan array binding signal (z-score),[20],0.185
same,glycan array binding signal (z-score),[21],0.332
same,glycan array binding signal (z-score),Fuc(a1-2)Gal6S(b1-4)Glc,-1.04
same,glycan array binding signal (z-score),[22],0.571
same,glycan array binding signal (z-score),[23],-0.78

# Looked up one by one from the entries so far (2):
binder,measurement,setting,value
"PEB4 (Campylobacter jejuni), A1VYV6 (protein) MKKFSLVAAALIAGVALNVNAATVATVNGKSISDAEVSEFFAPMLRGQDFKTLPDNQKKALIQQYIMQDLILQDAKKQNLEKDPLYTKELDRAKDAILVNVYQEKILNTIKIDAAKVKAFYDQNKDKYVKPARVQAKHILVATEKEAKDIINELKGLKGKELDAKFSELAKEKSIDPGSKNQGGELGWFDQSTMVKPFTDAAFALKNGTITTTPVKTNFGYHVILKENSQAKGQIKFDEVKQGIENGLKFEEFKKVINQKGQDLLNSAKVEYK",glycan array binding signal (z-score),[15],0.448
same,glycan array binding signal (z-score),Fuc(a1-2)Gal(b1-4)Glc6S,0.589

# Reference: the supplement of paper PMC8728848
